In PubChem BioAssay AID651640 (Broad Institute, 2012):
Hit rate of the full screen: of about 350,000 compounds, about 6,000 (1.7%) were called active. The shares of active, inactive and inconclusive entries below differ from those in the screen. Cut-off read from the data, not from the text of the source: active = CPE inhibition above about 20% (passing the limit was not always enough); inconclusive = no clear call, values can overlap the other calls; tested in BHK-21 cells.

Experiment: protection of cells from dengue 2 killing – plate reader, single concentration, primary screen (AID 651640);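 note: 0% = median of neutral control wells and 100% = median of positive control wells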
Conditions: DENV2-infected cells, cytopathic effect rescue, at 9.99 µM, hits give high values

| Compound | CPE inhibition |
| --- | --- |
| COc1ccccc1S(=O)(=O)N(C)C[C@@H]1Oc2cc(C#CCC(C)C)ccc2S(=O)(=O)N([C@@H](C)CO)C[C@@H]1C | inactive: -6.86% |
| CCC(=O)N1CC(=O)N2[C@H](CO)[C@H](c3ccc(-c4ccccc4C)cc3)[C@@H]2C1 | inactive: 18.7% |
| O=C1CC[C@@H]2CC(N3CCN(c4ccccc4)CC3)C[C@@H]3CCN1[C@H]23 (stereo partly specified) | inconclusive: 69.7% |
| COc1ccc(NC(=O)Nc2ccc3c(c2)C(=O)N([C@@H](C)CO)C[C@@H](C)[C@H](CN(C)C(=O)Nc2ccc4c(c2)OCO4)O3)cc1 | inconclusive: 69.5% |
| O=C(COc1ccc2ccc(=O)oc2c1)Nc1nccs1 | inconclusive: 24.7% |
| COc1ccc(NC(=O)N2C[C@@H](O)COC[C@H]3O[C@H](CC(=O)NCc4ccncn4)CC[C@@H]32)cc1 | inactive: -6.26% |
| COc1ccc(COC(=O)C2=C(C)NC(=O)NC2c2ccccc2F)cc1 (stereo unspecified) | active: 39% |
| CN1C(=O)CON=C1c1cccc2ccccc12 | inconclusive: 22.1% |
| CCC(C)(C)NC(=O)C(c1ccc(F)cc1)N(CCOC)C(=O)CCC(=O)Nc1nccs1 (stereo unspecified) | inconclusive: 41.4% |
| CC(C)CN(CC(C)C)c1nn[nH]n1 | inconclusive: 56.5% |
| CNC[C@H]1Oc2cc(C#CCC3CCCC3)ccc2S(=O)(=O)N([C@H](C)CO)C[C@H]1C | inactive: 4.56% |
| C[C@H](CO)N1C[C@H](C)[C@H](CN(C)Cc2ccc(-c3ccccc3)cc2)Oc2ccc(NC(=O)Nc3ccc(C(F)(F)F)cc3)cc2CC1=O | inconclusive: 33.3% |
| CCN(CC(=O)Nc1ccccc1C(F)(F)F)C(=O)c1cc(-c2ccccc2)nn1-c1ccccc1 | inconclusive: 41.4% |
| CCOc1ccc2oc(C(=O)NCC3CCCO3)c(C)c2c1 (stereo unspecified) | active: 64.2% |
| CNC(=O)CC(C(=O)O)c1ccc(OCC(C)C)cc1 (stereo unspecified) | inconclusive: 22.1% |
| COc1ccc(C#Cc2c(-c3ccc(OC)cc3)oc3ccc(-c4ccc(OC)cc4)cc23)cc1 | inconclusive: 20.2% |
| CSc1nncc(-c2ccccc2)n1 | inconclusive: 20.1% |
| C[C@@H]1CN([C@H](C)CO)C(=O)Cc2cc(NC(=O)Cc3cn(C)c4ccccc34)ccc2O[C@H]1CN(C)Cc1ccc2c(c1)OCO2 | active: 51.2% |
| CCCC(NC(=O)Cc1c(C)c2cc3c(C)c(C)oc3c(C)c2oc1=O)C(=O)N[C@@H](Cc1ccccc1)C(=O)O (stereo partly specified) | active: 48.8% |
| COc1ccc(S(=O)(=O)N(C)C[C@@H]2Oc3ncc(-c4cccc(C(F)(F)F)c4)cc3C(=O)N([C@H](C)CO)C[C@@H]2C)cc1 | inconclusive: 39.6% |
| CCCC1CC(C(=O)NC(C(C)Cl)C2OC(SC)C(O)C(O)C2O)N(C)C1 (stereo unspecified) | inconclusive: 20.2% |
| O=C(NCc1nc2ccccc2[nH]1)C1=C[C@H](c2coc3ccccc3c2=O)C[C@H](OCc2ccc(CO)cc2)O1 | inconclusive: 23.9% |
| COc1ccc2c3c([nH]c2c1)[C@H](CO)N(Cc1cc(F)ccc1F)CC31CN(C(=O)CN(C)C)C1 | active: 25.6% |
| Cc1cnc(C(=O)OCc2csc(CC(=O)Nc3ccccc3C)n2)cn1 | inconclusive: 57.9% |

| Compound | CPE inhibition |
| --- | --- |
| C[C@H](CO)N1C[C@H](C)[C@@H](CN(C)C(=O)Cc2ccccc2)Oc2cc(C#CC3(O)CCCC3)ccc2S1(=O)=O | inactive: -10.7% |
| CCOc1ccc(C(=O)Nc2cccc(C(=O)O)c2)cc1Cl | inactive: 10.5% |
| CCOC(=O)C1CCCN(C(=O)Cn2nc(CC)n3c(cc4sccc43)c2=O)C1 (stereo unspecified) | inconclusive: 33.6% |
| COc1ccc2c(c1)C(c1ccc(N3CCOCC3)cc1)=NNC(c1cccnc1)=N2 | inconclusive: 44.3% |
| O=C(CN1CCN(CN2C(=O)NC3(CCCCCC3)C2=O)CC1)Nc1cccc(F)c1 | inconclusive: 33.6% |
| C[C@@H]1CCCCO[C@@H](CN(C)Cc2ccccc2)[C@H](C)CN([C@@H](C)CO)C(=O)c2cc(NC(=O)Cc3ccccc3)ccc2O1 | inactive: 17.8% |
| CC(C)C#Cc1ccc2c(c1)O[C@@H](CN(C)Cc1cncnc1)[C@@H](C)CN([C@@H](C)CO)S2(=O)=O | inactive: -2.91% |
| COCCN1C[C@@H](CO)O[C@@H](n2cnc3c(NCc4ccc(F)cc4)ncnc32)C1 | inconclusive: 53.8% |
| CC(=O)N1CCN(C(=O)CSc2cc(C)c(Br)cc2C)CC1 | inconclusive: 60% |
| CCOc1cc2c(cc1O)C(=NOC)CC1C2CCC2(C)C(O)CCC12 (stereo unspecified) | inconclusive: 27.9% |
| Cc1ccc(-n2c(=O)c3cc4c(=O)n(-c5ccc(C)c(C)c5)c(=O)c4c(C(=O)c4ccc(C(=O)O)cc4)c3c2=O)cc1C | inconclusive: 29.9% |
| CNC[C@@H]1OCCCC[C@H](C)Oc2ccc(NC(=O)Nc3ccc4c(c3)OCO4)cc2C(=O)N([C@@H](C)CO)C[C@H]1C | inconclusive: 23.7% |
| C[C@@H]1CCCCO[C@H](CN(C)S(=O)(=O)c2cccs2)[C@H](C)CN([C@@H](C)CO)C(=O)c2cc(NS(=O)(=O)c3cccs3)ccc2O1 | inactive: -8.04% |
| CCOC(=O)/C=C/c1ccc(C(F)(F)F)cc1S(=O)(=O)NC(C)(C)C | active: 23.6% |
| COc1ccc(-c2ccccc2)cc1NC(=O)c1cccs1 | active: 49.4% |
| C[C@H](CO)N1C[C@H](C)[C@@H](CN(C)S(C)(=O)=O)OCCCC[C@H](C)Oc2ccc(NC(=O)Nc3ccc(F)cc3)cc2C1=O | active: 26.3% |
| O=C(CCN1CCOCC1)Nc1ccc(F)cc1 | inconclusive: 21.2% |
| Cc1c(/C=N/NC(=O)CNc2ccccc2)c2ccccn2c1C(=O)c1ccncc1 | active: 34.7% |
| COc1ccccc1-c1ccc(SCc2ccc(C)cc2)nn1 | inactive: 1.59% |
| COCC(=O)Nc1ccc2c(c1)[C@H]1C[C@@H](CC(=O)N3CCCCC3)O[C@@H](CO)[C@H]1O2 | inconclusive: 89.1% |
| CCOC(=O)C1CCCN(C(=O)c2ccc(C)c(NC(=O)C3=C(C)OCCS3)c2)C1 (stereo unspecified) | inconclusive: 27.8% |
| CCN1[C@H](C(=O)N(C)C)[C@@H](CO)[C@@H]2Cn3c(ccc(-c4cccc(OC)c4)c3=O)[C@@H]21 | inactive: 6.27% |
| C[C@@H]1CN([C@@H](C)CO)C(=O)c2cc(Br)cnc2O[C@@H]1CN(C)C(=O)c1ccccc1F | inactive: -2.81% |
| COc1ccc(S(=O)(=O)N2CCC[C@H]2C(=O)N2CCC[C@H]2C(=O)N[C@H](C)c2ccccc2)cc1C | inconclusive: 117% |

| Compound | CPE inhibition |
| --- | --- |
| O=C(NC1CC1)C1CC(=O)N(c2ccc(F)cc2)C1 (stereo unspecified) | inconclusive: 23.2% |
| CCc1nc2ccc(C(=O)NCCN3CCCC3)cn2c1N(C)Cc1ccc(OC)cc1 | inconclusive: 34.3% |
| O=C(C[C@@H]1CC[C@@H]2[C@H](COC[C@@H](O)CN2CC2CCOCC2)O1)NCC1CC1 | inconclusive: 49.4% |
| CCCN1[C@@H]2Cn3c(ccc(-c4ccc(F)cc4)c3=O)[C@H]1[C@@H](C(=O)NCCOC)[C@@H]2CO | inconclusive: 48.2% |
| Cc1ccc(OCCOC(=O)Nc2ccccc2)cc1 | inconclusive: 27.1% |
| Cc1ccc(C(=O)Nc2nc(C(N)Cc3ccc(C(F)(F)F)cc3)cs2)cc1 (stereo unspecified) | inconclusive: 23.4% |
| C[C@H](C(=O)N(C)C[C@@H]1OCc2ccccc2-c2ccccc2C(=O)N([C@@H](C)CO)C[C@@H]1C)c1ccccc1 | inconclusive: 30.1% |
| Cc1ccc(S(=O)(=O)N(C)C[C@@H]2Oc3ccc(NC(=O)Nc4ccc(F)cc4)cc3C(=O)N([C@H](C)CO)C[C@H]2C)cc1 | inconclusive: 50.7% |
| CCOC(=O)C1CCCN(c2c(Nc3ccc(C)c(C)c3)c(=O)c2=O)C1 (stereo unspecified) | inconclusive: 24.2% |
| COc1ccc(NC(=O)N(C)C[C@@H]2OCCCC[C@H](C)Oc3ccc(NS(=O)(=O)c4ccccc4)cc3C(=O)N([C@H](C)CO)C[C@H]2C)cc1 | active: 57.9% |
| C[C@@H]1CN([C@H](C)CO)S(=O)(=O)c2ccc(C#C[C@@H](C)O)cc2O[C@H]1CN(C)Cc1ccccn1 | active: 30.5% |
| Cc1ccc(S(=O)(=O)N[C@@H]2CC[C@@H](CCNC(=O)C3CCOCC3)O[C@H]2CO)cc1 | active: 21.1% |
| CCOc1ccc(OCCCC(=O)N2CCN(S(=O)(=O)c3ccc(Cl)cc3)CC2)cc1 | inactive: 0.129% |
| CCNC(=O)C[C@H]1CC[C@@H]2[C@@H](COc3ccc(NC(=O)c4ccccc4)cc3C(=O)N2C)O1 | inconclusive: 40.3% |
| CC(C)[C@@H](C)NC(=O)N(C)C[C@H]1OCc2ccccc2-c2ccccc2C(=O)N([C@H](C)CO)C[C@@H]1C | inconclusive: 21.7% |
| COc1ccc(N2CCN(CCCNC(=O)Cn3c(=O)c4cccn4c4ccccc43)CC2)cc1 | inconclusive: 42.3% |
| C[C@@H]1CN([C@@H](C)CO)S(=O)(=O)c2ccc(/C=C/c3ccccc3)cc2O[C@H]1CN(C)C(=O)C1CC1 | inconclusive: 20.5% |
| C[C@H](CO)N1C[C@H](C)[C@H](CN(C)C)Oc2ccc(NS(=O)(=O)c3ccc(F)cc3)cc2C1=O | active: 28.6% |
| CN1C(=O)c2ccccc2CC12c1ccccc1C(=O)N2C (stereo unspecified) | inactive: 8.37% |
| C[C@@H]1CN([C@@H](C)CO)C(=O)c2cc(NS(C)(=O)=O)ccc2O[C@H]1CN(C)S(=O)(=O)c1cccs1 | inconclusive: 53.1% |
| C[C@@H]1CN([C@@H](C)CO)C(=O)c2cc(NC(=O)C3CC3)ccc2O[C@@H]1CN(C)Cc1ccc(Oc2ccccc2)cc1 | active: 79% |
| COC(=O)c1sccc1NC(=S)Nc1cccc(F)c1 | inconclusive: 31.1% |
| C[C@@H]1CN([C@@H](C)CO)C(=O)c2cc(NS(=O)(=O)c3ccc(F)cc3)ccc2O[C@@H](C)CCCCO[C@H]1CN(C)S(=O)(=O)c1cn(C)cn1 | inconclusive: 20.8% |

As entered above:
CPE inhibition, Cc1ccc(OCCOC(=O)Nc2ccccc2)cc1 reads inconclusive: 27.1%
CPE inhibition, CCNC(=O)C[C@H]1CC[C@@H]2[C@@H](COc3ccc(NC(=O)c4ccccc4)cc3C(=O)N2C)O1 reads inconclusive: 40.3%
CPE inhibition, CCOc1ccc(OCCCC(=O)N2CCN(S(=O)(=O)c3ccc(Cl)cc3)CC2)cc1 reads inactive: 0.129%
CPE inhibition, C[C@H](CO)N1C[C@H](C)[C@H](CN(C)C)Oc2ccc(NS(=O)(=O)c3ccc(F)cc3)cc2C1=O reads active: 28.6%
CPE inhibition, O=C(NC1CC1)C1CC(=O)N(c2ccc(F)cc2)C1 (stereo unspecified) reads inconclusive: 23.2%
